{"source": "PubChem BioAssay AID445", "about": "(National Center for Advancing Translational Sciences (NCATS), 2006)", "note": "This is one part of the list. Further columns of the screen follow, without active or inactive calls. The list favours compounds with an active or inconclusive main result. Words in brackets tell the shape of the fitted curve; partial curves, single points and poor fits give uncertain potencies.", "data": [{"experiment": "IkB Signaling", "settings": "ABC-DLBCL IkBa-CBG/CBR dual luciferase ratio (green luciferase fused to IkBa over red control in OCI-Ly3 lymphoma cells), 4 h; measured here: control luc red channel unless noted", "method_in_brief": "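Curves were fitted separately to fusion (green), unfused (red) and ratio luminescence, then classed by r2, magnitude and activity. Cells: OCI-Ly3, 4 h compound plus doxycycline at 37C; 10 uM MG-132 defined full response.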", "values": [{"smiles": "COc1ccc(Cl)cc1NC(=O)CSc1nnc2[nH]c(=O)cc(C)n12", "AC50": "39.8 µM [falling, single point]"}, {"smiles": "COC(=O)c1cc(S(=O)(=O)N2CCN(c3cc(Cl)ccc3C)CC2)c[nH]1", "AC50": "20 µM [falling, single point]"}, {"smiles": "COc1cc2c(=O)c(C(=O)c3ccc(F)cc3)cn(Cc3cccc(F)c3)c2cc1OC", "AC50": "20 µM [falling, partial curve]"}, {"smiles": "O=C(CN1CCN(Cc2ccc(F)cc2Cl)C1=O)NCCc1ccc(Cl)cc1", "AC50": "15.8 µM [falling, single point]"}, {"smiles": "O=C1CN(C(=O)c2ccc(S(=O)(=O)N3CCCC3)cc2)C(c2ccccc2)c2cc(Cl)ccc2N1", "note": "(configuration not stated)", "AC50": "6.31 µM [falling, partial curve]"}, {"smiles": "Cc1ccc(C(=O)c2cn(CC(=O)NCc3ccccc3)c3nc(C)ccc3c2=O)cc1", "AC50": "0.00501 µM [falling, full curve, poor fit]"}, {"smiles": "COc1ccc(CCN(C)CCCOc2ccc(S(=O)(=O)c3[nH]c4ccccc4c3C(C)C)cc2)cc1OC", "AC50": "39.8 µM [falling, partial curve, poor fit]"}, {"smiles": "Cc1cc(C)n(CC(=O)Nc2cc(F)ccc2F)c(=O)c1C#N", "AC50": "6.31 µM [falling, partial curve]"}, {"smiles": "Cc1ccc(O)c(Nc2nc3ccccc3c3nncn23)c1", "AC50": "10 µM [rising, partial curve]"}, {"smiles": "COc1cccc(C(=O)Nc2ccc3nc4n(c(=O)c3c2)CCCCC4)c1", "AC50": "25.1 µM [falling, single point]"}, {"smiles": "CCOc1ccc(NC(=O)Cn2c(=O)cc(C)c3c(C)nn(-c4cccc(Cl)c4C)c32)cc1", "AC50": "0.0501 µM [rising, full curve, poor fit]"}, {"smiles": "CCOc1ccc(C(=O)N2CCN(CCc3ccccn3)CC2)cc1", "AC50": "5.01 µM [falling, partial curve]"}, {"smiles": "O=C(c1noc2c1CCCC2)N1CCN(Cc2ccccc2)CC1", "AC50": "10 µM [falling, partial curve]"}, {"smiles": "CCOc1ccc(Nc2nc(C)c(NC(=O)c3cccc(OC)c3)c(Nc3ccc(OCC)cc3)n2)cc1", "AC50": "15.8 µM [falling, partial curve]"}, {"smiles": "O=C(c1ccc2c(c1)OCO2)N1CCN(c2ccccc2)CC1", "AC50": "10 µM [falling, partial curve]"}, {"smiles": "CCOC(=O)C1=C(CN(CC)Cc2ccccc2)NC(=O)NC1c1ccc(OC(C)C)cc1", "note": "(configuration not stated)", "AC50": "25.1 µM [falling, partial curve]"}, {"smiles": "COc1ccccc1CNC(=O)c1ccc(N2CCCC2)c(NC(=O)NCc2ccc(F)cc2)c1", "AC50": "100 nM [rising, full curve] [measured here: IkB-luc green channel]"}, {"smiles": "CCCCSCCCNC(=O)C1CCN(Cc2nc(-c3cccc(Br)c3)oc2C)CC1", "AC50": "20 µM [falling, partial curve]"}, {"smiles": "O=C(Cn1ncc2c3ccccc3n(Cc3ccccc3F)c2c1=O)N1CCCCC1", "AC50": "15.8 µM [falling, single point]"}, {"smiles": "CCOc1ccc(CCNC(=O)c2[nH]c3cc(OC)ccc3c2Sc2ccccc2)cc1OCC", "AC50": "25.1 µM [falling, single point]"}, {"smiles": "CC(=O)c1cc2c(cc1NC(=O)c1cnn(-c3ccc(C)cc3)c1-n1cccc1)OCO2", "AC50": "0.794 µM [rising, full curve, poor fit]"}, {"smiles": "CC(=O)Oc1ccc2occ(C(=O)c3cccs3)c2c1", "AC50": "25.1 µM [falling, single point]"}, {"smiles": "COc1ccc(N2CCN(c3ccc(-c4nc(-c5cccc(C)c5)no4)cc3[N+](=O)[O-])CC2)cc1", "AC50": "3.16 µM [rising, single point]"}, {"smiles": "O=C(NCCC1=CCCCC1)c1ccc2c(c1)N(Cc1cccc(Cl)c1)C(=O)c1ccccc1S2(=O)=O", "AC50": "1 µM [rising, full curve]"}, {"smiles": "Cc1cccc2c1-c1sc(C(=O)N3CCN(c4cccc(Cl)c4)CC3)cc1CO2", "AC50": "20 µM [falling, single point]"}, {"smiles": "O=C(Cn1cnc2c(cnn2-c2ccc(F)cc2)c1=O)N1CCCc2ccccc21", "AC50": "31.6 µM [falling, partial curve]"}, {"smiles": "O=C(CN1C(=O)C2(SCC(=O)N2c2ccc(F)c(F)c2)c2ccccc21)Nc1ccccc1F", "note": "(configuration not stated)", "AC50": "31.6 µM [falling, single point]"}, {"smiles": "CCOC(=O)c1ccc(N2C(=O)c3n[nH]c(-c4ccco4)c3C2c2ccc(F)cc2)cc1", "note": "(configuration not stated)", "AC50": "20 µM [falling, partial curve]"}, {"smiles": "O=C(CSc1nccn1Cc1ccc(Cl)cc1)NCc1ccccc1", "AC50": "0.794 µM [falling, full curve]"}, {"smiles": "Cc1ccc(C)c(C(=O)COC(=O)CCCC(=O)Nc2cc(C(F)(F)F)ccc2Cl)c1", "AC50": "25.1 µM [falling, partial curve]"}, {"smiles": "Cc1cccc(CC(=O)NCCc2csc(-c3ccc(C(F)(F)F)cc3)n2)c1", "AC50": "39.8 µM [falling, single point]"}, {"smiles": "O=C(Nc1ccccc1N1CCN(c2ccc(F)cc2)CC1)C1CCCCC1", "AC50": "3.16 µM [falling, partial curve]"}, {"smiles": "O=C(c1ccco1)N1CCN(C(c2ccccc2Cl)c2nnnn2Cc2cccs2)CC1", "note": "(configuration not stated)", "AC50": "7.94 µM [falling, partial curve]"}, {"smiles": "Cc1cc2nc(-c3cccc(NC(=O)COc4ccc(Cl)c(C)c4)c3)oc2cc1C", "AC50": "0.158 µM [rising, full curve]"}, {"smiles": "O=C(NCc1ccccc1)C1CCN(S(=O)(=O)c2ccc3[nH]c(=O)ccc3c2)CC1", "AC50": "2 µM [rising, partial curve, poor fit]"}, {"smiles": "Cc1ccc(Cl)cc1-n1ncc2c(N3CCC(C)CC3)ncnc21", "AC50": "39.8 µM [falling, single point]"}, {"smiles": "Cc1ccc(CNC(=O)CN2CCN(Cc3ccc(F)cc3)C2=O)cc1", "AC50": "0.0794 µM [falling, full curve]"}, {"smiles": "Cc1ccc(Cc2nc3ccccc3nc2SCC(=O)N2CCCCC2C)cc1", "note": "(configuration not stated)", "AC50": "39.8 µM [falling, partial curve]"}, {"smiles": "Oc1ccc(NCc2ccc(OCc3ccccc3Cl)cc2)cc1", "AC50": "20 µM [falling, partial curve]"}, {"smiles": "COC(=O)c1cccc(NC(=O)Nc2cc(C(=O)NCc3cccc(F)c3)ccc2N2CCCC2)c1", "AC50": "5.01 µM [falling, partial curve]"}, {"smiles": "CC(=O)N1CCc2cc(Br)cc(S(=O)(=O)N3CCN(c4cccc(C)c4)C(C)C3)c21", "note": "(configuration not stated)", "AC50": "7.94 µM [falling, full curve]"}, {"smiles": "COc1cc(C2c3c(n[nH]c3C)C(=O)N2c2ccc(Br)cc2)ccc1O", "note": "(configuration not stated)", "AC50": "6.31 µM [falling, partial curve]"}, {"smiles": "Cc1nn(C(C)C(=O)NC2CCC(C)CC2)c(=O)c2cc3sccc3n12", "note": "(configuration not stated)", "AC50": "31.6 µM [falling, partial curve]"}, {"smiles": "COc1ccc(CCN2CCC(CNC(=O)c3cnn(-c4ccccc4)c3C3CCN(C(=O)OC(C)(C)C)CC3)CC2)cc1", "AC50": "15.8 µM [falling, partial curve]"}, {"smiles": "CN(C)c1ccc(CNC(=O)CCCn2ccc3cc(S(=O)(=O)N4CCCC4)ccc32)cc1", "AC50": "10 µM [falling, partial curve]"}, {"smiles": "COc1ccc(Cl)cc1NC(=O)c1cc(C)nn1-c1ccccc1", "AC50": "5.01 µM [falling, partial curve]"}, {"smiles": "O=C(Nc1ccncc1)c1cc2ccccc2o1", "AC50": "12.6 µM [falling, partial curve]"}, {"smiles": "CCOc1cccc(C=Nc2cc(C)cc(C)c2O)c1O", "AC50": "15.8 µM [falling, partial curve]"}, {"smiles": "O=C(Cn1ncc2c(Cl)cccc21)NCc1cccc(Br)c1", "AC50": "0.158 µM [rising, partial curve]"}, {"smiles": "Cc1ccc(N2CC(NC(=O)C(=O)c3c[nH]c4ccccc34)CC2=O)cc1", "note": "(configuration not stated)", "AC50": "3.98 µM [falling, single point]"}, {"smiles": "COc1ccc(OC)c(-c2cc(C(=O)N3CCc4ccccc4C3)no2)c1", "AC50": "20 µM [falling, partial curve]"}, {"smiles": "CC(C)CCNC(=O)c1ccc2c(c1)N(Cc1ccccc1F)C(=O)c1ccccc1S2=O", "note": "(configuration not stated)", "AC50": "39.8 µM [falling, single point]"}, {"smiles": "O=C(CSc1ncn[nH]1)Nc1nnc(-c2ccccc2)s1", "AC50": "3.16 µM [falling, full curve]"}, {"smiles": "Cc1cccn2c(=O)c3cc(C(=O)N(Cc4ccccc4)C(C)C)sc3nc12", "AC50": "25.1 µM [falling, partial curve]"}, {"smiles": "COc1ccc2c(c1)CCc1cc(C(=O)N3CCN(c4ccc(N5CCOCC5)nn4)CC3)sc1-2", "AC50": "2.51 µM [falling, full curve]"}, {"smiles": "Cc1cc(Cl)ccc1NC(=O)C1CCN(c2nnc(-n3c(C)ccc3C)s2)CC1", "AC50": "10 µM [falling, partial curve]"}, {"smiles": "COc1ccc(-c2cc(C(F)(F)F)n3nc(C(=O)NCC45CC6CC(CC(C6)C4)C5)cc3n2)cc1OC", "AC50": "0.00316 µM [falling, full curve, poor fit]"}, {"smiles": "CCc1ccccc1NC(=O)CSc1nc2c(oc3ccccc32)c(=O)n1-c1ccccc1F", "AC50": "0.0316 µM [falling, full curve, poor fit]"}, {"smiles": "Cc1ccc2ccc3cc(C(=O)N4CCN(c5ccccc5)CC4)nc3c2[nH]1", "AC50": "12.6 µM [falling, partial curve]"}, {"smiles": "Cc1ccc(NC(=O)C(=O)NCC(c2cccnc2)N2CCN(Cc3ccccc3)CC2)cc1", "note": "(configuration not stated)", "AC50": "31.6 µM [falling, single point]"}, {"smiles": "CCOc1ccc(C2C(C(=O)Nc3ccc(Cl)cc3)=C(C)Nc3nc(C(F)(F)F)nn32)cc1", "note": "(configuration not stated)", "AC50": "31.6 µM [falling, single point]"}, {"smiles": "Fc1ccccc1-n1ncc2c1ncn1nc(Cc3ccccc3)nc21", "AC50": "0.794 µM [rising, full curve]"}]}]}
